Laboratory results reported in paper PMC7749160.
These are yes or no findings as the source states them, for the method shown. Binding seen in cells or lysates may run through a third protein. Some binding calls cover weakened binding; strength is not graded here. Tags and fused reporters may be left off the sequences shown.

Sequences of proteins named here, by UniProt entry; tags and fusion partners are left off. A change or cut given only in a name is not applied to a line headed by its entry.
UniProt A0QSL8: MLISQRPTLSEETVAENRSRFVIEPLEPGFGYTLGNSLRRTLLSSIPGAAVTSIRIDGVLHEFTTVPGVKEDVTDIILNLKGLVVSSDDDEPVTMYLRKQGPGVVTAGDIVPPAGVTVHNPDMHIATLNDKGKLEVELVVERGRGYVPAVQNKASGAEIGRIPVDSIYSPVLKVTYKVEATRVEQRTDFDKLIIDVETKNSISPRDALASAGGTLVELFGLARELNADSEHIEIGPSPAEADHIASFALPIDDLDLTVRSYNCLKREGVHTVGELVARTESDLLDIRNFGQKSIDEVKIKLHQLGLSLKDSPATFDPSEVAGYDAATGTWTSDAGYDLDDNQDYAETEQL

Key:
[1] = biological target: T1, Mycobacterium smegmatis RbpA-FLAG (Mycobacterium smegmatis) (UniProt A0QZ11); test: co-IP; M. smegmatis lysates (20 mM Tris-HCl pH 8, 150 mM KCl, 1 mM MgCl2) on ANTI-FLAG M2 agarose overnight at 4 °C, eluted with 3x FLAG peptide; SDS-PAGE with bands identified by mass spectrometry, or western blot (anti-β, anti-σA)
T1 sequence: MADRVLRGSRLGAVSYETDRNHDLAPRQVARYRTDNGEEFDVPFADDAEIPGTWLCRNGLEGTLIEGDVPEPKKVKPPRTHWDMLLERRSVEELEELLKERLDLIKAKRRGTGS

[2] = biological target: T2, Mycobacterium smegmatis HelD-FLAG (Mycobacterium smegmatis) (UniProt A0QUE0); test: as above
T2 sequence: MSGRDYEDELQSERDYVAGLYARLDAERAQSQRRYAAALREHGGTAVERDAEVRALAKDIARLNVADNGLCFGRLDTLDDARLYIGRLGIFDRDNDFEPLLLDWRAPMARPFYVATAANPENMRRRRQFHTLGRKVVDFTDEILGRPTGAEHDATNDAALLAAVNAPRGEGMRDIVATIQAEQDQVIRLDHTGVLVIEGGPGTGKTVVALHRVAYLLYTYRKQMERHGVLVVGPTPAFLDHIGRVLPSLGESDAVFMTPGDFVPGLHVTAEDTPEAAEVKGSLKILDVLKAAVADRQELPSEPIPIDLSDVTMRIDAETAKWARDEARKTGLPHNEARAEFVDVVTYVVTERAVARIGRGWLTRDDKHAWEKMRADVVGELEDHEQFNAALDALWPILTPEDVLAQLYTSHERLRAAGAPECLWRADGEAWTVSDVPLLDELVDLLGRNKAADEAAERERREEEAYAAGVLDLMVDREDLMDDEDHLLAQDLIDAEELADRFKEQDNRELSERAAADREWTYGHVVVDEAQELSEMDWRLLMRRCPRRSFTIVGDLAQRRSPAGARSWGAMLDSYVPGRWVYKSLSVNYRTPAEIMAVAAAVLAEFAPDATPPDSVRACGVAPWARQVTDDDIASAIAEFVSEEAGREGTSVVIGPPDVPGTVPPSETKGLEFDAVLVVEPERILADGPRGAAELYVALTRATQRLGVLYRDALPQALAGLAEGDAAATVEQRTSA

binding [1]: binds
binding [2]: binds
Substance: Mycobacterium smegmatis RNAP core, endogenous (from UniProt A0QSL8 1-350; P60281 1-1169; A0QS66 1-1317; A0QWT1 1-107) (complex)
